Paper doi:10.1101/2024.02.17.580811
These are yes or no findings as the source states them, for the method shown. Binding seen in cells or lysates may run through a third protein. Here binding means that the protein was enriched with, or labelled near, the bait; the list need not be complete.

The chains behind the UniProt entries cited, without tags or fusion partners.
UniProt P24782: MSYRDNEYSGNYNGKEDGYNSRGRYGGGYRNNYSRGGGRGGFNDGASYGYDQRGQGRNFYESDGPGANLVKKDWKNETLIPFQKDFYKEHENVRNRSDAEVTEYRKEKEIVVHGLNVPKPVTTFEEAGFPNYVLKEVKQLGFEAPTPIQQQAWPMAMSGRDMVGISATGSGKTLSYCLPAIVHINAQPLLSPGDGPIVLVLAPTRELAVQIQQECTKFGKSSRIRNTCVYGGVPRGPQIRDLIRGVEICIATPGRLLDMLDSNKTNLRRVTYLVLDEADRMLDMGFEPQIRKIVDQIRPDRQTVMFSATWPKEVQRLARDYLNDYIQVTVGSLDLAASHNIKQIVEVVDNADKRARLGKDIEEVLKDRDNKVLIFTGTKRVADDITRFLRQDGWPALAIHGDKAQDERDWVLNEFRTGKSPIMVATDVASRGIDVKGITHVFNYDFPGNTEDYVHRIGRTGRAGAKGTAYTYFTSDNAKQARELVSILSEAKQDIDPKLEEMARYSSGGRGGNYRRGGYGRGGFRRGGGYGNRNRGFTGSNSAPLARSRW
UniProt Q9UTN6: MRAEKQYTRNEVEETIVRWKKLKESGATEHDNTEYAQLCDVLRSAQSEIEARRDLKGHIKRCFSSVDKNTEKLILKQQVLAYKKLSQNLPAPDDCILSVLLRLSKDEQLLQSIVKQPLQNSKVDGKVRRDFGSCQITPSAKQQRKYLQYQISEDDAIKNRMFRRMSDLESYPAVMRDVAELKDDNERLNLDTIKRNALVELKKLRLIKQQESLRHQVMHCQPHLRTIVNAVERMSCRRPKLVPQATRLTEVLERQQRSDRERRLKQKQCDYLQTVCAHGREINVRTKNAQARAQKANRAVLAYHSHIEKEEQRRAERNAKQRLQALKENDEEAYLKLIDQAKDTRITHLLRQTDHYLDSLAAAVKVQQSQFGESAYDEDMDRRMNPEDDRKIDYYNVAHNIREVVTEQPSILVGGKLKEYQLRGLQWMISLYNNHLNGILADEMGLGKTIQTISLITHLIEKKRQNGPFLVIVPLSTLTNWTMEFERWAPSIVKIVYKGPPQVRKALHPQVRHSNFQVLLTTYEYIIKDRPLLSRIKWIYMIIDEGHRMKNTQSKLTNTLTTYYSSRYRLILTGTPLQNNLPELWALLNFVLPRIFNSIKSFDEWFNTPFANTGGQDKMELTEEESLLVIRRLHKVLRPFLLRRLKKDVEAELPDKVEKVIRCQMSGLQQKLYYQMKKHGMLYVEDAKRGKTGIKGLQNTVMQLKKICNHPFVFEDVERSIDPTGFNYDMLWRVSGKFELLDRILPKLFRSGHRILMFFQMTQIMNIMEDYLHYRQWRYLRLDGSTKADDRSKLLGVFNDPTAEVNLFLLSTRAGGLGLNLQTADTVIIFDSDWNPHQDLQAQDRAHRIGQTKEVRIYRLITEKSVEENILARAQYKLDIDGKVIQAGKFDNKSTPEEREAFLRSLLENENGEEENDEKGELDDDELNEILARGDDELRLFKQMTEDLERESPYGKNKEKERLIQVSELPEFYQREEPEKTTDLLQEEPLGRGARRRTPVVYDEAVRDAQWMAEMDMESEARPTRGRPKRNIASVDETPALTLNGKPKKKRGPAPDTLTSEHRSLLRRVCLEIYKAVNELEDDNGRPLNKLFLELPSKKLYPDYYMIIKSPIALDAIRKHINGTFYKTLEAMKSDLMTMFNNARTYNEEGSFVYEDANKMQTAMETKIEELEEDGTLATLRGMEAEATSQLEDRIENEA
UniProt Q92355: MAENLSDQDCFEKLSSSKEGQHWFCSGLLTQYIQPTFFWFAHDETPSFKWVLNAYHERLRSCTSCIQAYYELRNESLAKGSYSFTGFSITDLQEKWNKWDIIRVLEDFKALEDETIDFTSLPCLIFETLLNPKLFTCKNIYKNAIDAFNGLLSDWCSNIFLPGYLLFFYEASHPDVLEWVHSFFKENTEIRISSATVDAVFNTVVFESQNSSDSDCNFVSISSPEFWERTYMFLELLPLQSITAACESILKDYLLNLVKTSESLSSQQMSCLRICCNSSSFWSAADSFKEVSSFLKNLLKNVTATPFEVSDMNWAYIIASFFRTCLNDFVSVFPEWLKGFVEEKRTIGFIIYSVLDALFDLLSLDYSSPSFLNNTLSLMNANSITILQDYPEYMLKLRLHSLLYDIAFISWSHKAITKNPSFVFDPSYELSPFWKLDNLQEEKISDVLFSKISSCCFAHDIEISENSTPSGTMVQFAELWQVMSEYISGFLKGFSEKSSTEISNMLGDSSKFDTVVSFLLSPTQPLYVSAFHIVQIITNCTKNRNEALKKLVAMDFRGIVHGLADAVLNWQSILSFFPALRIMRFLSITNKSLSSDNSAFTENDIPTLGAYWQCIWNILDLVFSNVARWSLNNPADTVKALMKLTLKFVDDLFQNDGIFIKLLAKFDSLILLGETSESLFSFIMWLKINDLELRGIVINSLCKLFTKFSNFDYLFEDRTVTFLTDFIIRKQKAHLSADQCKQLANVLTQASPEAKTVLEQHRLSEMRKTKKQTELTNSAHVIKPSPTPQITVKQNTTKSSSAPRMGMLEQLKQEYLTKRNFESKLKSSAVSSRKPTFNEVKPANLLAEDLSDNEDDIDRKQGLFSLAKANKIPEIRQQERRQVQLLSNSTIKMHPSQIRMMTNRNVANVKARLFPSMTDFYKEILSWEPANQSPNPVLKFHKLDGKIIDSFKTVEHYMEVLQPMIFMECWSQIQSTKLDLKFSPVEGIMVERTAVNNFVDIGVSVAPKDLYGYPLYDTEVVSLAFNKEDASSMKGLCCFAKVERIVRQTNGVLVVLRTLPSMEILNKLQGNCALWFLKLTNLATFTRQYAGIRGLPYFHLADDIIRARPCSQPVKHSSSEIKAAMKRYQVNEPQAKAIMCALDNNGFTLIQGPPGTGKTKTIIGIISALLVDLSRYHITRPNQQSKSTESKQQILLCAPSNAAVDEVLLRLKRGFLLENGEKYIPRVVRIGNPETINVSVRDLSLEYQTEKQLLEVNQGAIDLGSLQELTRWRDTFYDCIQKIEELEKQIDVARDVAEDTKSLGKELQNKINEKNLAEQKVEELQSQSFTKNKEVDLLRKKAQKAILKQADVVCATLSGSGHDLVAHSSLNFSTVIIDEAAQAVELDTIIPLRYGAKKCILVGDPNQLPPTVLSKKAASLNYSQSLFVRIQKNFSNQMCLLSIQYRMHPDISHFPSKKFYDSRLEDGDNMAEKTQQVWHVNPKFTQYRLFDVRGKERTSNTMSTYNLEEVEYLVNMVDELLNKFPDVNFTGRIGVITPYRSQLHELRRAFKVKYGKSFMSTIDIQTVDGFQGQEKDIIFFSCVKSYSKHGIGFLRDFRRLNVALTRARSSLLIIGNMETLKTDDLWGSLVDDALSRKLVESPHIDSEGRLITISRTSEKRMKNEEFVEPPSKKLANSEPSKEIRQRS

Legend:
[1] = target: Dbp2-HTP (S. pombe) (UniProt P24782); test: affinity purification with mass spectrometry
[2] = target: T1, Srp2-HTP (S. pombe) (UniProt P78814); test: affinity purification with mass spectrometry
T1 sequence: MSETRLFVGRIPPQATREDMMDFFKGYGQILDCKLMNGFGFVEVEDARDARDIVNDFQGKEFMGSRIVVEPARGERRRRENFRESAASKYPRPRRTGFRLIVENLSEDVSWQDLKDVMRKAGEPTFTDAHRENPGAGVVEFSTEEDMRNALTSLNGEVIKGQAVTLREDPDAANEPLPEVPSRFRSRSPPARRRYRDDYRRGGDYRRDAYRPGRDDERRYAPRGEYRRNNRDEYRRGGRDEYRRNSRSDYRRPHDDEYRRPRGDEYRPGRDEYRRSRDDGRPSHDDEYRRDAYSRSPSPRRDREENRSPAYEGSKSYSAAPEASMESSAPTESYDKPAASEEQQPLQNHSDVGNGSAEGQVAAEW

Row | binding [1] | binding [2] | Substance
1 | binds | – | Snf21 (from UniProt Q9UTN6 1-1199)
2 | binds | binds | RNA/DNA helicase Sen1 (from UniProt Q92355 1-1687) (enzyme)
